The target of this assay is T1, Aurora kinase A (human (endogenous in MDA-MB-231)) (UniProt O14965).
T1 sequence: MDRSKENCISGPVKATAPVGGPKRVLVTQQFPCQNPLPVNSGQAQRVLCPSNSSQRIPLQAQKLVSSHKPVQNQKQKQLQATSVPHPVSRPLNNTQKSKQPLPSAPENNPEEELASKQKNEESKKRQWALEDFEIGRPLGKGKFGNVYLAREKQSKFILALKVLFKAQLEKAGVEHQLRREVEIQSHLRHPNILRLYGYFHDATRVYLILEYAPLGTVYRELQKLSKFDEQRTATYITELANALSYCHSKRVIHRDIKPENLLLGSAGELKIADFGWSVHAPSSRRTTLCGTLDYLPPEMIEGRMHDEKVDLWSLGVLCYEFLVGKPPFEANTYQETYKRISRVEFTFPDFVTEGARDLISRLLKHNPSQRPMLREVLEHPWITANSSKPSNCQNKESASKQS
The assay is described as follows: co-IP; endogenous proteins in MDA-MB-231 cell lysate (500-1000 ug protein), overnight at 4 °C with antibodies combined with Protein A-G agarose, detected by Western blot. In general terms: In western blotting, separated proteins are transferred to a membrane and probed.

Amino acid sequences for entries named in this document (tags omitted).
UniProt P67809: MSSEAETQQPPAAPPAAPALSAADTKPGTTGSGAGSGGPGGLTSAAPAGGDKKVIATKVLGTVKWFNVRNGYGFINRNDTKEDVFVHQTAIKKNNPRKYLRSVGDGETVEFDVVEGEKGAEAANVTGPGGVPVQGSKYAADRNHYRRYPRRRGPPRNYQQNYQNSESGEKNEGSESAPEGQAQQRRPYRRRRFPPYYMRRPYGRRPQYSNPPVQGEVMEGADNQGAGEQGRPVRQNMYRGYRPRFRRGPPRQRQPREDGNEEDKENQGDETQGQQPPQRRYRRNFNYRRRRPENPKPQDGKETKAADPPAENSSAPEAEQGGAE

This note sets out measurements from paper PMC10320321.

These are yes or no findings as the source states them, for the method shown. In cells and extracts the contact can be indirect. Some entries that bind do so weakly or less than the wild type.

As for “splicing factor YBX1 (from UniProt P67809 1-324)”, the binding result is recorded as “binds”.
With “splicing factor hnRNPK (from UniProt P61978 1-463)”, the binding entry was “binds”.
